B1: NOC4L (protein, UniProt Q9BVI4 1-516, looked up)
Nucleolar complex protein 4 …: MEREPGAAGVRRALGRRLEAVLASRSEANAVFDILAVLQSEDQEEIQEAVRTCSRLFGALLERGELFVGQLPSEEMVMTGSQGATRKYKVWMRHRYHSCCNRLGELLGHPSFQVKELALSALLKFVQLEGAHPLEKSKWEGNYLFPRELFKLVVGGLLSPEEDQSLLLSQFREYLDYDDTRYHTMQAAVDAVARVTGQHPEVPPAFWNNAFTLLSAVSLPRREPTVSSFYVKRAELWDTWKVAHLKEHRRVFQAMWLSFLKHKLPLSLYKKVLLIVHDAILPQLAQPTLMIDFLTRACDLGGALSLLALNGLFILIHKHNLEYPDFYRKLYGLLDPSVFHVKYRARFFHLADLFLSSSHLPAYLVAAFAKRLARLALTAPPEALLMVLPFICNLLRRHPACRVLVHRPHGPELDADPYDPGEEDPAQSRALESSLWELQALQRHYHPEVSKAASVINQALSMPEVSIAPLLELTAYEIFERDLKKKGPEPVPLEFIPAQGLLGRPGELCAQHFTLS
B2: NUBPL (protein, UniProt Q8TB37 39-319, looked up)
Iron-sulfur cluster transfer …: GAGSETLKQRRTQIMSRGLPKQKPIEGVKQVIVVASGKGGVGKSTTAVNLALALAANDSSKAIGLLDVDVYGPSVPKMMNLKGNPELSQSNLMRPLLNYGIACMSMGFLVEESEPVVWRGLMVMSAIEKLLRQVDWGQLDYLVVDMPPGTGDVQLSVSQNIPITGAVIVSTPQDIALMDAHKGAEMFRRVHVPVLGLVQNMSVFQCPKCKHKTHIFGADGARKLAQTLGLEVLGDIPLHLNIREASDTGQPIVFSQPESDEAKAYLRIAVEVVRRLPSPSE
B3: CSN2 (protein, UniProt P05814 16-226, looked up)
Beta-casein: RETIESLSSSEESITEYKQKVEKVKHEDQQQGEDEHQDKIYPSFQPQPLIYPFVEPIPYGFLPQNILPLAQPAVVLPVPQPEIMEVPKAKDTVYTKGRVMPVLKSPTIPFFDPQIPKLTDLENLHLPLPLLQPLMQQVPQPIPQTLALPPQPLWSVPQPKVLPIPQQVVPYPQRAVPVQALLLNQELLLNPTHQIYPVTQPLAPVHNPISV
B4: TMEM33 (protein, UniProt P57088 2-247, looked up)
Transmembrane protein 33: ADTTPNGPQGAGAVQFMMTNKLDTAMWLSRLFTVYCSALFVLPLLGLHEAASFYQRALLANALTSALRLHQRLPHFQLSRAFLAQALLEDSCHYLLYSLIFVNSYPVTMSIFPVLLFSLLHAATYTKKVLDARGSNSLPLLRSVLDKLSANQQNILKFIACNEIFLMPATVFMLFSGQGSLLQPFIYYRFLTLRYSSRRNPYCRTLFNELRIVVEHIIMKPACPLFVRRLCLQSIAFISRLAPTVP
B5: MCM3 (protein, UniProt P25205 2-808, looked up)
DNA replication licensing …: AGTVVLDDVELREAQRDYLDFLDDEEDQGIYQSKVRELISDNQYRLIVNVNDLRRKNEKRANRLLNNAFEELVAFQRALKDFVASIDATYAKQYEEFYVGLEGSFGSKHVSPRTLTSCFLSCVVCVEGIVTKCSLVRPKVVRSVHYCPATKKTIERRYSDLTTLVAFPSSSVYPTKDEENNPLETEYGLSVYKDHQTITIQEMPEKAPAGQLPRSVDVILDDDLVDKAKPGDRVQVVGTYRCLPGKKGGYTSGTFRTVLIACNVKQMSKDAQPSFSAEDIAKIKKFSKTRSKDIFDQLAKSLAPSIHGHDYVKKAILCLLLGGVERDLENGSHIRGDINILLIGDPSVAKSQLLRYVLCTAPRAIPTTGRGSSGVGLTAAVTTDQETGERRLEAGAMVLADRGVVCIDEFDKMSDMDRTAIHEVMEQGRVTIAKAGIHARLNARCSVLAAANPVYGRYDQYKTPMENIGLQDSLLSRFDLLFIMLDQMDPEQDREISDHVLRMHRYRAPGEQDGDAMPLGSAVDILATDDPNFSQEDQQDTQIYEKHDNLLHGTKKKKEKMVSAAFMKKYIHVAKIIKPVLTQESATYIAEEYSRLRSQDSMSSDTARTSPVTARTLETLIRLATAHAKARMSKTVDLQDAEEAVELVQYAYFKKVLEKEKKRKKRSEDESETEDEEEKSQEDQEQKRKRRKTRQPDAKDGDSYDPYDFSDTEEEMPQVHTPKTADSQETKESQKVELSESRLKAFKVALLDVFREAHAQSIGMNRLTESINRDSEEPFSSVEIQAALSKMQDDNQVMVSEGIIFLI
B6: RCN2 (protein, UniProt Q14257 23-317, looked up)
Reticulocalbin-2: GKAEELHYPLGERRSDYDREALLGVQEDVDEYVKLGHEEQQKRLQAIIKKIDLDSDGFLTESELSSWIQMSFKHYAMQEAKQQFVEYDKNSDDTVTWDEYNIQMYDRVIDFDENTALDDAEEESFRKLHLKDKKRFEKANQDSGPGLSLEEFIAFEHPEEVDYMTEFVIQEALEEHDKNGDGFVSLEEFLGDYRWDPTANEDPEWILVEKDRFVNDYDKDNDGRLDPQELLPWVVPNNQGIAQEEALHLIDEMDLNGDKKLSEEEILENPDLFLTSEATDYGRQLHDDYFYHDEL
B7: CWC22 (protein, UniProt Q9HCG8 1-908, looked up)
Pre-mRNA-splicing factor …: MKSSVAQIKPSSGHDRRENLNSYQRNSSPEDRYEEQERSPRDRDYFDYSRSDYEHSRRGRSYDSSMESRNRDREKRRERERDTDRKRSRKSPSPGRRNPETSVTQSSSAQDEPATKKKKDELDPLLTRTGGAYIPPAKLRMMQEQITDKNSLAYQRMSWEALKKSINGLINKVNISNISIIIQELLQENIVRGRGLLSRSVLQAQSASPIFTHVYAALVAIINSKFPQIGELILKRLILNFRKGYRRNDKQLCLTASKFVAHLINQNVAHEVLCLEMLTLLLERPTDDSVEVAIGFLKECGLKLTQVSPRGINAIFERLRNILHESEIDKRVQYMIEVMFAVRKDGFKDHPIILEGLDLVEEDDQFTHMLPLEDDYNPEDVLNVFKMDPNFMENEEKYKAIKKEILDEGDTDSNTDQDAGSSEEDEEEEEEEGEEDEEGQKVTIHDKTEINLVSFRRTIYLAIQSSLDFEECAHKLLKMEFPESQTKELCNMILDCCAQQRTYEKFFGLLAGRFCMLKKEYMESFEGIFKEQYDTIHRLETNKLRNVAKMFAHLLYTDSLPWSVLECIKLSEETTTSSSRIFVKIFFQELCEYMGLPKLNARLKDETLQPFFEGLLPRDNPRNTRFAINFFTSIGLGGLTDELREHLKNTPKVIVAQKPDVEQNKSSPSSSSSASSSSESDSSDSDSDSSDSSSESSSEESDSSSISSHSSASANDVRKKGHGKTRSKEVDKLIRNQQTNDRKQKERRQEHGHQETRTERERRSEKHRDQNSSGSNWRDPITKYTSDKDVPSERNNYSRVANDRDQEMHIDLENKHGDPKKKRGERRNSFSENEKHTHRIKDSENFRRKDRSKSKEMNRKHSGSRSDEDRYQNGAERRWEKSSRYSEQSRESKKNQDRRREKSPAKQK
B8: CIRH1A (protein, UniProt Q969X6 1-686, looked up)
U3 small nucleolar …: MGEFKVHRVRFFNYVPSGIRCVAYNNQSNRLAVSRTDGTVEIYNLSANYFQEKFFPGHESRATEALCWAEGQRLFSAGLNGEIMEYDLQALNIKYAMDAFGGPIWSMAASPSGSQLLVGCEDGSVKLFQITPDKIQFERNFDRQKSRILSLSWHPSGTHIAAGSIDYISVFDVKSGSAVHKMIVDRQYMGVSKRKCIVWGVAFLSDGTIISVDSAGKVQFWDSATGTLVKSHLIANADVQSIAVADQEDSFVVGTAEGTVFHFQLVPVTSNSSEKQWVRTKPFQHHTHDVRTVAHSPTALISGGTDTHLVFRPLMEKVEVKNYDAALRKITFPHRCLISCSKKRQLLLFQFAHHLELWRLGSTVATGKNGDTLPLSKNADHLLHLKTKGPENIICSCISPCGSWIAYSTVSRFFLYRLNYEHDNISLKRVSKMPAFLRSALQILFSEDSTKLFVASNQGALHIVQLSGGSFKHLHAFQPQSGTVEAMCLLAVSPDGNWLAASGTSAGVHVYNVKQLKLHCTVPAYNFPVTAMAIAPNTNNLVIAHSDQQVFEYSIPDKQYTDWSRTVQKQGFHHLWLQRDTPITHISFHPKRPMHILLHDAYMFCIIDKSLPLPNDKTLLYNPFPPTNESDVIRRRTAHAFKISKIYKPLLFMDLLDERTLVAVERPLDDIIAQLPPPIKKKKFGT

System: mSWI/SNF complexes
Experiment: mSWI/SNF complex purification with HA-tagged baits and mass spectrometry (peptide counts)
Design: species or system human
Conditions: 293_HA-BRD7 bait purification, mass spectrometry; for Total: total peptide count per identified protein; for Unique: unique peptide count per identified protein

| Molecule | Total | Unique |
| --- | --- | --- |
| B1 | 1 | 1 |
| B2 | 1 | 1 |
| B3 | 1 | 1 |
| B4 | 1 | 1 |
| B5 | 1 | 1 |
| B6 | 1 | 1 |
| B7 | 1 | 1 |
| B8 | 1 | 1 |

Source: patent US12729225B2, “Non-canonical SWI/SNF complex and uses thereof” (Dana-Farber Cancer Institute, Inc., priority 2018, dated 2026)
